In PubChem BioAssay AID743255 (National Center for Advancing Translational Sciences (NCATS), 2014):
About 910 (0.23%) of roughly 390,000 compounds were called active. Inconclusive results, whose numbers are uncertain, are shown with a selection of clear calls. Calls come from the whole dose curve; as a rule, active = well fitted inhibition curve with a large enough effect; inconclusive = small, poorly fitted or top-dose-only effect; inactive = no such curve, though single readings can be large or run the other way. Where the call is inconclusive, the potency comes from a doubtful curve fit.

The chains behind the UniProt entries cited, without tags or fusion partners. Where a name states a change or a piece, a line headed by the entry shows the natural chain unless it says otherwise.
UniProt O94782: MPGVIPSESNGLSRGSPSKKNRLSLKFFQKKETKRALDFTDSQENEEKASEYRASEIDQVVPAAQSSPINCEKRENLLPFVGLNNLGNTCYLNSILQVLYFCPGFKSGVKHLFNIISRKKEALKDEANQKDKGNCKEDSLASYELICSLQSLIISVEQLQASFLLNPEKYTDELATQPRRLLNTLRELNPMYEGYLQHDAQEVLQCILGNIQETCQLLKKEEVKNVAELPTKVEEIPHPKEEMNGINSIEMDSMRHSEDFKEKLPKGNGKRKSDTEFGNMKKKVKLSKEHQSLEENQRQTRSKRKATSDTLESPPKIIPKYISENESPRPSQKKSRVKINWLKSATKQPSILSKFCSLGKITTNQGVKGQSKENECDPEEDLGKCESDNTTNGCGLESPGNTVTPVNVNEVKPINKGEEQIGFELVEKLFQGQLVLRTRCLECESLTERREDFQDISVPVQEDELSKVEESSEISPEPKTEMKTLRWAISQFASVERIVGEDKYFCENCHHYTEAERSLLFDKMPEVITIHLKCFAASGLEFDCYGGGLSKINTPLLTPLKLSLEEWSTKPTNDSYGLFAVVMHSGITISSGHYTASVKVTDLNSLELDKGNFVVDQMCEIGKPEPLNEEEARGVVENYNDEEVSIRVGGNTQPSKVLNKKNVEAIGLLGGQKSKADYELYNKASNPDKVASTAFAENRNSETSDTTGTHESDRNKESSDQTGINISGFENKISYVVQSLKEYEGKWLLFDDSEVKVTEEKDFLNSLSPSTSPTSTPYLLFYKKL

Target: Ubiquitin carboxyl-terminal hydrolase 1 (Homo sapiens) (UniProt O94782)
Assay: Inhibitors of USP1/UAF1: Primary Screen; note: nearly all actives have a fitted effect of over 60% in size
Settings: recombinant USP1/UAF1, Ub-Rhodamine cleavage fluorescence; series mostly up to 57.1 µM
In short: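 In this screen, compounds sit with the deubiquitinase complex (1nM) for 15 min at room temperature before Ub-Rho is added at 150nM final. Fluorescence rise is then followed for 6 reads every 60 seconds.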
Potency is the fitted concentration of half-maximal effect.

| SMILES | Potency |
| --- | --- |
| CCN1C[C@@H]2[C@@H]3C(=O)N(C)C(=O)[C@@H]3[C@](Cc3ccccc3)(C1=O)N2C(=O)c1ccc(Cl)cc1 | inconclusive: 50.1 µM [inhibitor, partial curve, poor fit] |
| COc1ccc(-c2ccc([C@H]3[C@@H]4C=CCC[C@@]4(C)C(=O)N3Cc3ccccc3)c(F)c2)cc1OC | inconclusive: 0.251 µM [inhibitor, full curve, poor fit] |
| Cc1ccc(NC(=O)CSc2nnc(-c3ccc(Br)cc3)o2)c(C)c1 | inconclusive: 0.891 µM [inhibitor, full curve] |
| CCOC(=O)CC1=C(C(=O)OCC)C(c2ccc(C)o2)C(C#N)=C(N)O1 (centres undefined) | inactive |
| O=C(O)c1ccc(CSc2nnc(-c3ccco3)o2)cc1 | inactive |
| Cc1nc2cccnc2n1-c1cccc(C(=O)NCCc2ccc(S(N)(=O)=O)cc2)c1 | inconclusive: 14.1 µM [inhibitor, partial curve, poor fit] |
| O=C1CC(C(=O)N2CCCc3ccccc32)CN1c1ccc(F)cc1 (centres undefined) | inconclusive: 56.2 µM [inhibitor, single point] |
| Cc1ccc(C(=O)Nc2ccc(CN3CCCCC3)cc2)c(C)c1 | inconclusive: 56.2 µM [inhibitor, partial curve, poor fit] |
| O=C1C(=O)c2ccccc2C([O-])=C1[n+]1ccccc1 | inconclusive: 31.6 µM [inhibitor, partial curve] |
| COC(=O)c1cc2oc3ccccc3c2n1Cc1c(C)cc(C)cc1C | inconclusive: 39.8 µM [inhibitor, partial curve] |
| COc1ccc(C=CC(=O)C=CC=Cc2ccccc2)cc1 | inactive |
| COc1cc(OC)cc(C(=O)N2CCN=C2SCc2cccnc2)c1 | inconclusive: 0.891 µM [inhibitor, full curve] |
| CCSc1nnc(NC(=O)[C@@H](NC(=O)c2cc(OC)cc(OC)c2)C(C)C)s1 | inconclusive: 31.6 µM [inhibitor, partial curve] |
| O=C(Nc1ccc(N2CCOCC2)c2nonc12)C1CCCC1 | inconclusive: 35.5 µM [inhibitor, partial curve] |
| COc1ccccc1-c1nc(-c2ccccn2)no1 | inconclusive: 7.94 µM [inhibitor, partial curve] |
| N#Cc1csc(CCNC(=O)c2ccccc2)n1 | inconclusive: 200 µM [inhibitor, partial curve, poor fit] |
| O=C(Nc1ccc(Br)cc1)C(Cc1ccccc1)NS(=O)(=O)c1cccc2nsnc12 (centres undefined) | inactive |
| COc1ccccc1NC(=O)Cn1nc(-c2ccc(C)cc2)c2c(c1=O)CCCC2 | inconclusive: 44.7 µM [inhibitor, partial curve] |
| CC(=O)N1N=C(c2ccc(Br)cc2)CC1c1ccc(Br)cc1 (centres undefined) | inactive |
| Fc1ccc(-n2ncc3c(NCCC4=CCCCC4)ncnc32)cc1 | inconclusive: 5.01 µM [inhibitor, full curve] |
| O=C(/C=C/c1ccc(OCCCF)cc1)N1CCN(Cc2ccccc2)CC1 | inconclusive: 112 µM [inhibitor, partial curve, poor fit] |
| Nc1c(C(=O)Nc2ccc(S(=O)(=O)N3CCCC3)cc2)sc2nc3cc4c(cc3cc12)CCC4 | inconclusive: 39.8 µM [inhibitor, partial curve, poor fit] |

| SMILES | Potency |
| --- | --- |
| N#Cc1c(-n2ncnc2-c2ccccc2C(F)(F)F)sc2c1CCCCC2 | inconclusive: 20 µM [inhibitor, partial curve, poor fit] |
| COc1ccc2c3c([nH]c2c1)C1CC2C(CC(O)C(OC)C2C(=O)O)CN1CC3 (centres undefined) | inconclusive: 31.6 µM [inhibitor, partial curve] |
| Oc1c(C=Nc2cccc3nsnc23)ccc2ccccc12 | active: 25.1 µM |
| CCOc1cc(-c2ccc(OC(=O)c3ccc(C)cc3)c(OC)c2)cc(=O)c2c(C)oc(C)c12 | inconclusive: 0.316 µM [inhibitor, full curve, poor fit] |
| O=C1N=C(N2CCN(c3ccccc3)CC2)S/C1=C/c1cccs1 | inconclusive: 1.12 µM [inhibitor, partial curve] |
| O=C(CSc1n[nH]c(-c2ccccc2O)n1)NC1CCCCC1 | inactive |
| Cc1ccc2c(c1)N(CCCC(=O)NCc1cccnc1)C(=O)CO2 | inconclusive: 0.708 µM [inhibitor, full curve, poor fit] |
| CC(=O)N(Cc1ccccc1)c1ncc2c(n1)c(=O)c(C#N)c1ccccn12 | inconclusive: 0.562 µM [inhibitor, full curve, poor fit] |
| Cc1ccc(Cl)cc1N1CCN(CCCNC(=O)C2COc3ccccc3C2)CC1 (centres undefined) | inactive |
| CCc1ccccc1NS(=O)(=O)c1ccc2c(c1)C(C)(C)C(=O)N2C | inconclusive: 15.8 µM [inhibitor, partial curve] |
| COc1ccc(NC(=O)c2n[nH]c(=O)c3ccccc23)cc1S(=O)(=O)N1CCCCC1 | inactive |
| Cc1ccc(C)c(Cn2c(=O)n(Cc3ccccc3)c(=O)c3c2c2cc(C)ccc2n3C)c1 | inconclusive: 10 µM [inhibitor, partial curve] |
| CN(CC(=O)Nc1ccc(Cl)c(C(F)(F)F)c1)C(=O)C1CC(=O)N(CCc2ccccc2)C1 (centres undefined) | inconclusive: 100 µM [inhibitor, partial curve, poor fit] |
| CCOc1ccccc1N1CCN(C(=O)/C=C/c2cccc([N+](=O)[O-])c2)CC1 | inactive |
| NN=C(NN=Cc1ccccc1)c1ccccc1 | inconclusive: 31.6 µM [inhibitor, partial curve] |
| CCOC(=O)N1CCC(N2Cc3cccc(C(=O)Nc4c(C)cccc4CC)c3C2=O)CC1 | inconclusive: 0.282 µM [inhibitor, full curve] |
| Cc1cccc(C(=O)NCC(c2ccco2)S(=O)(=O)c2cccs2)c1 (centres undefined) | inconclusive: 5.62 µM [inhibitor, full curve, poor fit] |
| COc1ccc(CCN2C(=O)NC(NC(C)=O)(C(F)(F)F)C2=O)cc1OC (centres undefined) | inactive |
| CCOC(=O)c1ccc(NC(=O)c2nc[nH]c2C(=O)N2CCc3ccccc3C2)cc1 | inconclusive: 0.282 µM [inhibitor, full curve] |
| Cc1cc(C)cc(C(=O)NCC(=O)OCC(=O)Nc2cccnc2Cl)c1 | inconclusive: 0.708 µM [inhibitor, full curve, poor fit] |
| COc1ccc2[nH]c(C)c(CCN(Cc3cccs3)C(=S)Nc3ccccc3)c2c1 | inconclusive: 31.6 µM [inhibitor, partial curve] |
| CC(=O)N(C1=C(N2CCOCC2)C(=O)c2ccccc2C1=O)c1ccc(C(=O)O)cc1 | inconclusive: 31.6 µM [inhibitor, partial curve] |

| SMILES | Potency |
| --- | --- |
| Cc1c([N+](=O)[O-])cc(C(=O)Nc2ccc(NC(=O)c3ccco3)cc2)cc1[N+](=O)[O-] | inconclusive: 7.94 µM [inhibitor, full curve, poor fit] |
| CC1(C)CC(=O)C(C(O)c2ccc([N+](=O)[O-])cc2)C(C)(C)N1 (centres undefined) | inconclusive: 44.7 µM [inhibitor, partial curve] |
| COC(=O)CCCC1=CC2=C(c3ccccc3)C(=O)C(C)(OC(=O)C3CCCC3)C(=O)C2=CN1c1ccccc1 (centres undefined) | inconclusive: 15.8 µM [inhibitor, partial curve] |
| CC1C=CC(C)C(C(=O)c2ccccc2)C1C(=O)c1ccccc1 (centres undefined) | inconclusive: 5.01 µM [inhibitor, partial curve] |
| CCOC(=O)Cc1cc(-c2ccc(O)cc2)nc2ccc3ccccc3c12 | inconclusive: 44.7 µM [inhibitor, partial curve, poor fit] |
| O=C(Nc1ccc(F)cc1)Nc1nnc(Cc2ccccc2F)s1 | inactive |
| COc1ccc(-c2ccc3c(c2)[C@@H]2C[C@H](N(C)S(=O)(=O)c4ccccc4)[C@H]([C@H](C)O)C(=O)N2CC3)cc1 | inconclusive: 8.91 µM [inhibitor, partial curve, poor fit] |
| Cn1c2c(c(=O)n(C)c1=O)NC1(N2)C(=O)Nc2ccccc21 (centres undefined) | inconclusive: 50.1 µM [inhibitor, partial curve] |
| COCCN(C(=O)c1snc(C(N)=O)c1N)C(C(=O)NC1CCCCC1)c1ccc(F)cc1 (centres undefined) | inconclusive: 39.8 µM [inhibitor, partial curve] |
| O=C(CCCOc1ccccc1)Nc1ccc(Br)cc1 | inactive |
| COc1ccc(OC(C)C(=O)Nc2cccc(F)c2)cc1 (centres undefined) | inconclusive: 44.7 µM [inhibitor, partial curve, poor fit] |
| CCN1C(=O)C(CC(=O)Nc2ccc(OC)cc2)N(CCc2ccc(F)cc2)C1=S (centres undefined) | inactive |
| CCCCOc1ccc(Cc2n[nH]c(=S)n2N)cc1 | inactive |
| CC(C)(C)c1ccc(/C=C/C(=O)Nc2ccc(S(N)(=O)=O)cc2)cc1 | inactive |
| O=C(Nc1ccc(Br)cc1)NC1CCCCCCC1 | inconclusive: 20 µM [inhibitor, partial curve] |
| O=C(Nc1nnc(CC2=CCCCC2)s1)Nc1ccccc1F | inactive |
| O=C(CCCC(=O)NCc1ccccc1)NCc1ccccc1 | inactive |
| COc1ccc(/C=N/Nc2ncc(Br)cn2)c(OC)c1 | inconclusive: 35.5 µM [inhibitor, partial curve] |
| CCCCCn1c(=O)[nH]c2cc(C(=O)Nc3ccc(F)c(F)c3)ccc2c1=O | inconclusive: 0.282 µM [inhibitor, full curve, poor fit] |
| COc1ccc2cc(C(=O)N3CCN(c4ccccc4OC)CC3)[nH]c2c1 | inconclusive: 44.7 µM [inhibitor, single point] |

2 successive compounds out of the list so far:

| SMILES | Potency |
| --- | --- |
| COC(=O)CCCC1=CC2=C(c3ccccc3)C(=O)C(C)(OC(=O)C3CCCC3)C(=O)C2=CN1c1ccccc1 (centres undefined) | inconclusive: 15.8 µM [inhibitor, partial curve] |
| CC1C=CC(C)C(C(=O)c2ccccc2)C1C(=O)c1ccccc1 (centres undefined) | inconclusive: 5.01 µM [inhibitor, partial curve] |
